Two substances from patent US20070196883A1, “ENZYME” (UNIVERSITY OF DUNDEE, priority 1999, published 2007) can be followed below.

Chains of the proteins cited; added tags and fusions are not shown. Lines headed by an entry give the natural chain unless they say otherwise; changes in a name come on top.
UniProt Q16513: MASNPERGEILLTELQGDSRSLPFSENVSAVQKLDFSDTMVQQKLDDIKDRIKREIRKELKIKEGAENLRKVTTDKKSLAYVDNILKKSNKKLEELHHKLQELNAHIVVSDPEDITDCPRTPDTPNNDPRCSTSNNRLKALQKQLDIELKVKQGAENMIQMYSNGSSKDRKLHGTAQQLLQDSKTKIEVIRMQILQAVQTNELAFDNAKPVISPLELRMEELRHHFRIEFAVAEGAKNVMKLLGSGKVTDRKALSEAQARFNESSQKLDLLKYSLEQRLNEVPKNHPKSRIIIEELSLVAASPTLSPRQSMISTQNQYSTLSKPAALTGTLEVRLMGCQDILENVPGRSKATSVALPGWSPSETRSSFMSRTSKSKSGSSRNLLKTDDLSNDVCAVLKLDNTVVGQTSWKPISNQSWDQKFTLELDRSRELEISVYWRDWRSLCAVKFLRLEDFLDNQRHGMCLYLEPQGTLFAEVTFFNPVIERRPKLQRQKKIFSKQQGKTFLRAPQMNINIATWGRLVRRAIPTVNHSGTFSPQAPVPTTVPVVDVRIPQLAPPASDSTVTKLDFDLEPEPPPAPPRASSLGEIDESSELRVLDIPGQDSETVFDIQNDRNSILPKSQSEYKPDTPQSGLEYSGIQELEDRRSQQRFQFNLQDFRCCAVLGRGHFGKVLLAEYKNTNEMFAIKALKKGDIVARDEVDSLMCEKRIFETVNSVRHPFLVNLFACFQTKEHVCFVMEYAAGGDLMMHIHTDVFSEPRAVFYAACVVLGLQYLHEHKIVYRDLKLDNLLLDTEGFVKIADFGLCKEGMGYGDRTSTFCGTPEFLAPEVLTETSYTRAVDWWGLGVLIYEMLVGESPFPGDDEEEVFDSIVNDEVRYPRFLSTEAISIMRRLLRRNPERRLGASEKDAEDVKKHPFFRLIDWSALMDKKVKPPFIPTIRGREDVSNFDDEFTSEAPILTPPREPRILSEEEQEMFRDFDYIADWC

Numbering of substitutions follows the chain as printed. Results are given in words; binding and its absence hold for the method and conditions named. For some assays here: Binding seen in cells or lysates may run through a third protein. Some entries that bind do so weakly or less than the wild type. For some assays here: Where a sequence is shown, tags or fusion partners need not be part of it.

For experiment [1], the target named is T1, kinase domain of Myc-PDK1 (residues 51 to 404) (human) (UniProt O15530).
T1 sequence: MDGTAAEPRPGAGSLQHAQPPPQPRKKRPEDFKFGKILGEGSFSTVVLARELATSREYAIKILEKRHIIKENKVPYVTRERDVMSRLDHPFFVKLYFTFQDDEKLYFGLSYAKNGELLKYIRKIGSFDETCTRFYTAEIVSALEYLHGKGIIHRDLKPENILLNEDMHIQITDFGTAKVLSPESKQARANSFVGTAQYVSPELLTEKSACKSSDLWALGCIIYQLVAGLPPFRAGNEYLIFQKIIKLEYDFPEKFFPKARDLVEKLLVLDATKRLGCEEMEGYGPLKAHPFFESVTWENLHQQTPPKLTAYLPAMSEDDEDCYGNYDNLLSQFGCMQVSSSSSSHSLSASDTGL
Nature of the experiment: co-expression in 293 cells, glutathione-Sepharose pull-down and Myc immunoprecipitation, Coomassie gel.

Experiment [2] addresses T2, wild type Myc-PDK1 (Myc epitope-tagged PDK1) (human) (UniProt O15530).
T2 sequence: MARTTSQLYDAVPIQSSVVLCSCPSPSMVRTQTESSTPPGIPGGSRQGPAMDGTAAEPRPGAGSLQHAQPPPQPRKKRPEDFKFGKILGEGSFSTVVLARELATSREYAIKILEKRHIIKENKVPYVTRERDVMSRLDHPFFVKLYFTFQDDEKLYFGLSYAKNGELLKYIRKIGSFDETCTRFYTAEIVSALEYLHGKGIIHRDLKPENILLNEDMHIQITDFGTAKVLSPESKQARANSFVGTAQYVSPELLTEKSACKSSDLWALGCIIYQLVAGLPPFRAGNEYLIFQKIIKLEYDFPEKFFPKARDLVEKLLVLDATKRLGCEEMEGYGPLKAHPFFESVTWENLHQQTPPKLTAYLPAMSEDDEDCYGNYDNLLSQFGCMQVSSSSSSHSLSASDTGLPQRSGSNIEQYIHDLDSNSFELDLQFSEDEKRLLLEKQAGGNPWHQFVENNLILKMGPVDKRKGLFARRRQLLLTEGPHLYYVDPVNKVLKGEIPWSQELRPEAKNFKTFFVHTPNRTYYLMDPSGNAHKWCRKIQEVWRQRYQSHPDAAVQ
The description is as above.

For experiment [3], the target named is T3, kinase dead Myc-PDK1 (K111A, D223A) (human) (UniProt O15530).
T3 sequence: T2 sequence with K111A, D223A
Described as above.

For experiment [4], the target named is T2, wild type Myc-PDK1 (Myc epitope-tagged PDK1) (human). The experiment in a line: co-expression in 293 cells, pull-down.
Experiment [5] deals with T4, kinase domain of PDK1 in pAS2-1 (yeast two-hybrid) (human) (UniProt O15530).
T4 sequence: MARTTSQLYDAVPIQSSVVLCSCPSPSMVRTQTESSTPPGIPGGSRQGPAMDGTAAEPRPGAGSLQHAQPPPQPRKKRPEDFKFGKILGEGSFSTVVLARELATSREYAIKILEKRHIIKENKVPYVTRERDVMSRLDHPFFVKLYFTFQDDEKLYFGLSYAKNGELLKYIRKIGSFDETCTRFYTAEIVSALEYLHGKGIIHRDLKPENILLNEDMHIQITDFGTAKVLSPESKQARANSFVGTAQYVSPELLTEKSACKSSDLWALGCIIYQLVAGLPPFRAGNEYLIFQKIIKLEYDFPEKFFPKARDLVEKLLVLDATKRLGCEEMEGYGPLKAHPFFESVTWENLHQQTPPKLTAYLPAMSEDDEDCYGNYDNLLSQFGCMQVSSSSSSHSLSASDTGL
Nature of the experiment: yeast two-hybrid.

On to “GST-PIF (glutathione-S-transferase fusion of the C-terminal 77 amino acids of PRK2) (from UniProt Q16513 908-984)”, for which the binding entry in experiment [1], in experiment [2], in experiment [3] and in experiment [4] was “binds” each time.

With “PDK1-Interacting Fragment (PIF), C-terminal 77 amino acids of PRK2, expressed from pGAD10 in yeast (from UniProt Q16513 908-984)”, the binding entry in experiment [5] is recorded as “binds”.
